Assay [1] addresses MutL homologue 1 (MLH1) (mouse (endogenous in CH12.F3)) (UniProt Q9JK91). Put plainly: co-IP; nuclear extracts (100 µg) of CH12.F3 cells induced with CIT for 24 hours; IP with anti-MLH1 or anti-MBD4 Abs (anti-GFP as control) and protein-A beads, 4°C; DTT omitted, final NaCl 100 mM; Western blot. For orientation: In western blotting, separated proteins are transferred to a membrane and probed.

Protein sequences, listed by entry. Tags and fused reporters are not part of them.
UniProt Q9JK91: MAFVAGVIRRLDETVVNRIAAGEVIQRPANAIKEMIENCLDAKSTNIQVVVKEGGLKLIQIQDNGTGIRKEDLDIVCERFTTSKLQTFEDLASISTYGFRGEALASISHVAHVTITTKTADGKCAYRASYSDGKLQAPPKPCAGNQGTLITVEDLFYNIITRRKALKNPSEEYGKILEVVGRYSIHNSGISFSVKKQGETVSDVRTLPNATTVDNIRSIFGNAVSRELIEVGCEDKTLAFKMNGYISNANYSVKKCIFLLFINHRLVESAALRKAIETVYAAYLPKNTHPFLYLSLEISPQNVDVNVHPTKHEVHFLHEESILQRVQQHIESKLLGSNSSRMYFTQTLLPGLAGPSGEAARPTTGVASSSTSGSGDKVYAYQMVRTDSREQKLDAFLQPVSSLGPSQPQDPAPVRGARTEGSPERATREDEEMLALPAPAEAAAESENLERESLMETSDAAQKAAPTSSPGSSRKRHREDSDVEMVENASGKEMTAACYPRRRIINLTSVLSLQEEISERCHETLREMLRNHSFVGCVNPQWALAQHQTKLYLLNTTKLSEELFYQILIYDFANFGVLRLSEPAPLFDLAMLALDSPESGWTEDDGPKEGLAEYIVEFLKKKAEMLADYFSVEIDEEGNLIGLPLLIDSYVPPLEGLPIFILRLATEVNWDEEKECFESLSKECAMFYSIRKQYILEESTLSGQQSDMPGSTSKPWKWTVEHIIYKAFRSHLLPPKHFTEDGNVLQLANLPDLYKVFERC
UniProt Q9Z2D7: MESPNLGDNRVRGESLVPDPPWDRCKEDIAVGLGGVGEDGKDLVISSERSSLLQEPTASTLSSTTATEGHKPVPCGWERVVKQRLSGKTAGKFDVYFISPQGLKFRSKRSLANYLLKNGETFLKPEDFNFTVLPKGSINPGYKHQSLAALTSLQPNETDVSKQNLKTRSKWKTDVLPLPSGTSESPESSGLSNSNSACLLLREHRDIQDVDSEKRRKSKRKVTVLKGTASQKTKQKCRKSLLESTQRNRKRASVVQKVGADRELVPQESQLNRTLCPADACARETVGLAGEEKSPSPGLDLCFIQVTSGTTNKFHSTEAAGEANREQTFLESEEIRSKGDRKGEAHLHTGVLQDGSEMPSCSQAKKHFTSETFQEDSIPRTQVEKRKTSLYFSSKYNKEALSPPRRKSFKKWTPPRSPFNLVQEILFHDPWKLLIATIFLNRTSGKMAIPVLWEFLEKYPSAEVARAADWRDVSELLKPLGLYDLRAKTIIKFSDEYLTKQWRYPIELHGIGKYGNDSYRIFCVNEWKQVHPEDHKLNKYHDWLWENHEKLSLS

The target of assay [2] is Methyl CpG binding domain protein 4 (MBD4) (mouse (endogenous in CH12.F3)) (UniProt Q9Z2D7). The assay is described as above.

These are yes or no findings as the source states them, for the method shown. Binding seen in cells or lysates may run through a third protein. Some results given as binding are weak or reduced against the parent protein; the word gives no strength.

Two substances from paper PMC3812156 can be followed below.

For “Methyl CpG binding domain protein 4 (MBD4) (from UniProt Q9Z2D7 1-554)”, in assay [1], the binding result is listed as “binds”.

As for “MutL homologue 1 (MLH1) (from UniProt Q9JK91 1-760)”, the binding entry in assay [2] is given as “binds”.
